Assay [1] addresses 人CD22抗原 (human CD22 antigen, coated in ELISA) (human) (UniProt P20273). Put plainly: phage ELISA on coated CD22 antigen, anti-M13-HRP.
Assay [2] concerns the target CD22 on K562-CD22 cells (UniProt P20273). Description: flow cytometry on CD22-positive cells.
Assay [3] concerns the target CD22单价抗原 (monovalent CD22 antigen) (UniProt P20273). Description: BLI (Octet K2), scFv on sensor, CD22 monovalent antigen as analyte.

Chains of the proteins cited; added tags and fusions are not shown. Lines headed by an entry give the natural chain unless they say otherwise; changes in a name come on top. Residues count along the entry.
UniProt P20273: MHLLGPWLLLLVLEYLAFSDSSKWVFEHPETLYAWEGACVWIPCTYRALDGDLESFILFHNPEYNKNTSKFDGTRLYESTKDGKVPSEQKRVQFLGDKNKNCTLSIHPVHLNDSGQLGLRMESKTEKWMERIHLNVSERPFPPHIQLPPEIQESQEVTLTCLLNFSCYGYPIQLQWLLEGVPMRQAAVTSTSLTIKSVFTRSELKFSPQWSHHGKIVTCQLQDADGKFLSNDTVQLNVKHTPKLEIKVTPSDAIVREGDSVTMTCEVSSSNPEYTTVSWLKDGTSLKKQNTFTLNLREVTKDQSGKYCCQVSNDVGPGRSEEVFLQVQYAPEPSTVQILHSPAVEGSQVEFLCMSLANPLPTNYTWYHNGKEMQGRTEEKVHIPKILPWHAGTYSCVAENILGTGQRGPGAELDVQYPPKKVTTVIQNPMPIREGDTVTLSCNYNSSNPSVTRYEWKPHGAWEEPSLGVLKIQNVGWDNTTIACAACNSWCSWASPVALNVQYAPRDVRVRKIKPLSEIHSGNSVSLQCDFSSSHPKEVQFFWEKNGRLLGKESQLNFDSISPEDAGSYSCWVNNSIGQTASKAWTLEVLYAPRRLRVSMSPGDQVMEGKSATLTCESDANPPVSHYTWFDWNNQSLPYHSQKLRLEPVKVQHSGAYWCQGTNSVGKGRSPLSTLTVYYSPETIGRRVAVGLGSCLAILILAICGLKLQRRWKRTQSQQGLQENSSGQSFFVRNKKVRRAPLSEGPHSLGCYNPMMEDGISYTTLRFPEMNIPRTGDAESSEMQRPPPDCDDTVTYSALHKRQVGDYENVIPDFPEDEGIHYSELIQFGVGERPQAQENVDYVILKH
CD22 on K562-CD22 cells: residues 20-847 of P20273
CD22单价抗原 (monovalent CD22 antigen): residues 20-687 of P20273

Results are given in words; binding and its absence hold for the method and conditions named. Some results given as binding are weak or reduced against the parent protein; the word gives no strength.

B1: SK-01-A14/E-1-29 (scFv, V domains shown)
VH: EVQLVESGGGVVQPGRSLRLSCAASGFKFDDYPMHWVRQPPGRGLEWVSLISWDGKTTYIGDSLKGRFTVSRDNNKNSLYLEINNLRSEDGALYYCAKDRSRTGWGYGGMDVWGRGTMVTVSS
VL: DIQLTQSPSSLSASVGDRVTITCRTSQTIDNYLNWYQVKSGKAPKLLIYAASSLQSGVPSRFSGSGSGTDFTLTISSLQPEDFATYYCQQSYSTPPMYTFGQGTKLEIKG
Regarding B1, the binding result in assay [1] and in assay [2] was “binds” each time.

B2: SK-04-E07/E-1-35 (scFv, V domains shown)
VH: EVQLQQSGPGLVKPSQTLSLTCAISGDSVSSNSAAWNWIRQSPSRGLEWLGRTYYRSKWYNDYAVSVKSRITINPDTSKNQFSLQLNSVTPEDTALYYCARSVGIARWDVWGQGTTVTVSS
VL: DIQLTQSPSSLSASVGDRVTITCRASQSISSYLNWYQQKPGKAPELLIYSASTLHGELPSRFSGSGSGTDFNLTISSLQPEDFATYYCQQSFTTPFTFGPGTKVDIKR
On to B2, for which the binding result in assay [1], in assay [3] and in assay [2] was “binds” throughout.

B3: SK-03-B09/D-2-13 (scFv, V domains shown)
VH: QVQLVQSGAEVKKPGASVKVSCKASGYTFTSYGISWVRQAPGQGLEWMGWISAYNGNTNYAQKLQGRVTMTTDTSTSTAYMELRSLRSDDTAVYYCARDFQGIAVADLDYWGQGTLVTVSS
VL: ETTLTQSPATLSVSPGERATLSCRASQSVSSNLAWYQQKPGQAPRLLIYGASTRATGIPARFSGSGSGTEFTLTISSLQSEDFAIYYCQQYHSWPPLTFGGGTKLEIKR
As for B3, the binding result in assay [1], in assay [3] and in assay [2] was “binds” in each case.

These data come from patent publication CN116217727A.
